In paper PMC10505183:
No constants are given. Whether binding was seen depends on the method and setting. Binding seen in cells or lysates may run through a third protein. Some entries that bind do so weakly or less than the wild type. Values belong to the binder of their own block, whether it stands above or below them.

Columns and labels:
[1] = target: T1, STR (stunted arbuscule, half-size ABCG transporter) (Medicago truncatula) (UniProt D3GE74); assay: split reporter; BiFC (nYFP/cYFP) in agroinfiltrated N. benthamiana leaves, confocal imaging two days post-inoculation
T1 sequence: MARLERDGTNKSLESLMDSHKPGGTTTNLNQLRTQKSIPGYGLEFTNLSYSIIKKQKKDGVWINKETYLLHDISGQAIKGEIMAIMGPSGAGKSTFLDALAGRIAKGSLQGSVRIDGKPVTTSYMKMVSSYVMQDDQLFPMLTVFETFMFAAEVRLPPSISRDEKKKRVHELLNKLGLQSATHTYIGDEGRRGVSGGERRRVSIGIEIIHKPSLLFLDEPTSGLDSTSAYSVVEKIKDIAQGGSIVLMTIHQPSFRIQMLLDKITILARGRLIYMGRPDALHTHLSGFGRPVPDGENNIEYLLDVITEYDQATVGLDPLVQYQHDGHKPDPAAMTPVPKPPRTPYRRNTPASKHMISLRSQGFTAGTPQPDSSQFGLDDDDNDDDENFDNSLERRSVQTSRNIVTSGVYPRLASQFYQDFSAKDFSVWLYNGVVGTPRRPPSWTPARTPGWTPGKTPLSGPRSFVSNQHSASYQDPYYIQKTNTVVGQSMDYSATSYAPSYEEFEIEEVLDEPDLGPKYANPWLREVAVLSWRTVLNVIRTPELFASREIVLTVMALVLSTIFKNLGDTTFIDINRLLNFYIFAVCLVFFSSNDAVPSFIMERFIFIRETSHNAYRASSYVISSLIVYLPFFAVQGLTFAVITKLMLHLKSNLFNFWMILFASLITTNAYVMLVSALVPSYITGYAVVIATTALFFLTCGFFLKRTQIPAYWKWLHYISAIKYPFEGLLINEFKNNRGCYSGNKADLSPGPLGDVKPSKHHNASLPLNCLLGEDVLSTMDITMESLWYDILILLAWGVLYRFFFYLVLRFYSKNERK

[2] = target: STR2 (half-size ABCG transporter) (Medicago truncatula) (UniProt A9YWR6); assay: as above

binding [1]: no binding
B1: STR (stunted arbuscule, half-size ABCG transporter) (protein, UniProt D3GE74 1-817)
chain: T1 sequence

binding [2]: no binding
binding [1]: binds
B2: STR2 (half-size ABCG transporter) (protein, UniProt A9YWR6 1-727)
chain: MKTQGLELETVIDIKHKPVSFTGGLEFESLTYTVTKKKKVDGKWSNEDVDLLHDITGYAPKGCITAVMGPSGAGKSTLLDGLAGRIASGSLKGKVSLDGNSVNASLIKRTSAYIMQEDRLFPMLTVYETLMFAADFRLGPLSAVDKRQRVEKLIEQLGLSSSRNTYIGDEGTRGVSGGERRRVSIGVDIIHGPSLLFLDEPTSGLDSTSALSVIEKLHDIARNGSTVILTIHQPSSRIQLLLDHLIILARGQLMFQGSLKDVGHHLNRMGRKIPKGENPIENLIDVIQEYDQCDFVGVEVLAEFARTGMKPPLLSDMEEIISYTNSIAPSPSPLHRGSKYEEKSQDFSYSSQISRRSLNDEFDHSIRSPYNNTPMSWSASNSAAFLKFTPSRLKNENKVQKPPSHASPGIYTYSSEILPATPTPHSSDYVVDENDYLTPTNSSQEHLGPKFANSYIGETWILMRRNFTNIRRTPELFLSRLMVLTFMGVMMATMFHNPKNTLQGITNRLSFFIFTVCLFFFSSNDAVPAFIQERFIFIRETSHNAYRASCYTIASLITHMPFLALQALAYAAIVWFALELRGPFIYFFLVLFISLLSTNSFVVFVSSIVPNYILGYAAVIAFTALFFLFCGYFLSSEDIPLYWRWMNKVSTMTYPYEGLLMNEYQTNETFGSNDGVSITGFDILKSLHIGTEEIKKRNNVLIMLGWAVLYRILFYIILRFASKNQRS
